## Percent effect of library compounds

The chains behind the UniProt entries cited, without tags or fusion partners. Residues count along the entry.
UniProt P9WNZ1, whole entry: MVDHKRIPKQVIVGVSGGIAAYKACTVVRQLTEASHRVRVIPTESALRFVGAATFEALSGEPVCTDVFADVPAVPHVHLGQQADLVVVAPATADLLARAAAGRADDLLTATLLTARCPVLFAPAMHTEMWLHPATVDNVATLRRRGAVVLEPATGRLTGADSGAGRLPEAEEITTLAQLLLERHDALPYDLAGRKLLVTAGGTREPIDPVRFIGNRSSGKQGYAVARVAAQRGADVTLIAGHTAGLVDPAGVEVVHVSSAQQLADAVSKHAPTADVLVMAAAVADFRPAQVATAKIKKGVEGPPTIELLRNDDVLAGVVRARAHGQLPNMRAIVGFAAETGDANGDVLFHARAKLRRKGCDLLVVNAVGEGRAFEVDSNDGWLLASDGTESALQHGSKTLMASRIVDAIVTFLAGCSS
UniProt I6X8D2, whole entry: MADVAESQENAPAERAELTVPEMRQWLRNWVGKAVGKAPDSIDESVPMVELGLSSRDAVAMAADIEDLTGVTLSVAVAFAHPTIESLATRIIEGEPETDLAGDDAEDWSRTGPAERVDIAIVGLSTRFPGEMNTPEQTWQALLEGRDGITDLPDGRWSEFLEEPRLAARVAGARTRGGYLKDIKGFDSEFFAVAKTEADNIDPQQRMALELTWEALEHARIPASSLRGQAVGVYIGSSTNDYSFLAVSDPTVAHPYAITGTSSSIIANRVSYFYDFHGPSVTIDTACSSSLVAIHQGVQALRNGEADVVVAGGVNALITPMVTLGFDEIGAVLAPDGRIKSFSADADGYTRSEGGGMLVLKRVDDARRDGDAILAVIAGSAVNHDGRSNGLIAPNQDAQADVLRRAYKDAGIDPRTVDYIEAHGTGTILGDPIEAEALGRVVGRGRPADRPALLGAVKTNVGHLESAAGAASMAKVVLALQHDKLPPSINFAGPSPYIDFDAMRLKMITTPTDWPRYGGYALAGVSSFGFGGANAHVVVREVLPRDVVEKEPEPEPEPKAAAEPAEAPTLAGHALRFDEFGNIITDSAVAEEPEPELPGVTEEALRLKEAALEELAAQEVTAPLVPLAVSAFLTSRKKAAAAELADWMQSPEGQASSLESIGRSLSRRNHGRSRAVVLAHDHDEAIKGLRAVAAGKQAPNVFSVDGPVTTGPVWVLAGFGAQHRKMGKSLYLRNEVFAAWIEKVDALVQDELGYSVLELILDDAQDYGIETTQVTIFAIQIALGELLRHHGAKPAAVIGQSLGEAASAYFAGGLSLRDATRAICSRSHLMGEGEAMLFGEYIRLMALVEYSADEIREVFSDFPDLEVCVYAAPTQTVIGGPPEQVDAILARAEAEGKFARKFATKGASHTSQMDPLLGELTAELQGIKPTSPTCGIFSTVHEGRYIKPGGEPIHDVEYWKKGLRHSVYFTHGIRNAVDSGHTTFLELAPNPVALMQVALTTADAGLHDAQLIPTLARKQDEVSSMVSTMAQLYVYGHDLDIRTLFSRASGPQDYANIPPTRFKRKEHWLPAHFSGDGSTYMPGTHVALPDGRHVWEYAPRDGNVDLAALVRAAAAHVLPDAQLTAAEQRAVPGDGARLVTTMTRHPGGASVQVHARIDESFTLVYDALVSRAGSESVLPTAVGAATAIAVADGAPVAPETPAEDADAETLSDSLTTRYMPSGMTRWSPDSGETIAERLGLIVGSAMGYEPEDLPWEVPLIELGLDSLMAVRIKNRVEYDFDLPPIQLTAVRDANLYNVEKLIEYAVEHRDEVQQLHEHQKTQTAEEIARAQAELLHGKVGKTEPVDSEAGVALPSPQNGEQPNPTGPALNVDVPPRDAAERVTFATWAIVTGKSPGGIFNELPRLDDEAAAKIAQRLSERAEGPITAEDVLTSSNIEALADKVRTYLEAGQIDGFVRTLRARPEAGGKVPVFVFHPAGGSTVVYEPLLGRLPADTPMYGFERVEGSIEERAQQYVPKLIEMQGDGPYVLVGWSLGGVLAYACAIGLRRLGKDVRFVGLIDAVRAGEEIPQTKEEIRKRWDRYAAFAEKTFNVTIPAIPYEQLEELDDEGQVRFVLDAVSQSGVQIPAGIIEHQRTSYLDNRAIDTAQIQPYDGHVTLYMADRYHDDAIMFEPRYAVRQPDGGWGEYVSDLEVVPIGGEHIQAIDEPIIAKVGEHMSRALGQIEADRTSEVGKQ
UniProt P9WFT3, whole entry: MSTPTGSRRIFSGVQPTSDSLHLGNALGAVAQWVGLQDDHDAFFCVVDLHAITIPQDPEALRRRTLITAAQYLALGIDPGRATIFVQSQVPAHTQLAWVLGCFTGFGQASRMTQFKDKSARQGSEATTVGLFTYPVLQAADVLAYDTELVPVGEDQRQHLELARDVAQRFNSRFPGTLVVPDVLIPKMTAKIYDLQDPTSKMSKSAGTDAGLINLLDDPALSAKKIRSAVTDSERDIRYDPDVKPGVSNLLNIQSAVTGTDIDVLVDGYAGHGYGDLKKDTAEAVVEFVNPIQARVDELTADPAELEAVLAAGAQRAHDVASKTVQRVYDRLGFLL
UniProt A4I591, 1-473: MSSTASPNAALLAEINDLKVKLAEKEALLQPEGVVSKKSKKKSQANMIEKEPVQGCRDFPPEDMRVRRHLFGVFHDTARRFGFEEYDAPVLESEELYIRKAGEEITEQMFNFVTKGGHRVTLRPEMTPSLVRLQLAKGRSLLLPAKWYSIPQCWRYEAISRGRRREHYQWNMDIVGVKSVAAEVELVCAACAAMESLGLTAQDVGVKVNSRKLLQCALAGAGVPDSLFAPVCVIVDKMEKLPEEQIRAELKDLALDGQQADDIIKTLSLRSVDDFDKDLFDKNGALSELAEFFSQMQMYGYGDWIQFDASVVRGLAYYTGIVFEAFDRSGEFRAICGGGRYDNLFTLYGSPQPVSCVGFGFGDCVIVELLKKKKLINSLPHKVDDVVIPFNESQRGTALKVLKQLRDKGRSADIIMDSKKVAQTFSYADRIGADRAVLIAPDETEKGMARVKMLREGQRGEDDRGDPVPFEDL

Data taken from ChEMBL document CHEMBL3988442, “University of Dundee, Small-Polar-MMV Screening Library” (2021).

A: 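Coenzyme A biosynthesis protein CoaBC, Mycobacterium tuberculosis (UniProt P9WNZ1). Enzyme assay of CoaBC with a phosphate dye (Biomol Green) read at 650 nm. Compounds at 30 µM. Higher reads as stronger inhibition, judged from the few compounds that gave an IC50. Most strong results did not repeat in a second test. Size under these conditions: about 67,000 compounds, about 40 of them at 50% or above in at least one test.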
B: 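Polyketide synthase Pks13, Mycobacterium tuberculosis (UniProt I6X8D2). Enzyme assay of the thioesterase domain of polyketide synthase 13; the read-out is not stated. Compounds at 30 µM. Higher reads as stronger inhibition (inferred from which compounds were picked for retests). About 67,000 compounds were tested under these conditions; 0.46% (about 300) showed 50% or more at least once.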
C: 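Enzyme assay of tryptophanyl-tRNA synthetase; the read-out is not stated. Target: Tryptophan-tRNA ligase, Mycobacterium tuberculosis (UniProt P9WFT3). Compounds at 10 µM. Higher most likely means stronger inhibition; the record gives no direction and few retests gave an IC50. Of about 65,000 compounds tested this way, about 64 (0.098%) reached 50% or more in at least one test.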
D: 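Histidine-tRNA ligase, Leishmania infantum (UniProt A4I591). Enzyme assay of histidyl-tRNA synthetase; the read-out is not stated. Compounds at 30 µM. The record gives no direction; compounds that gave an IC50 in retests scored well above the rest, so higher reads as stronger inhibition. The assay is labelled LdHisRS but filed under L. infantum. Of about 69,000 compounds tested this way, about 410 (0.6%) reached 50% or more in at least one test.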

The filed quantity is “Percent Effect” (%). How 0% and 100% were set is not recorded. Most values in the screen are low, and negative values occur. Compounds were drawn at random from those tested, without regard to their results. A dash means the value is not listed here; it may have been measured.

| Compound | A | B | C | D |
|---|---|---|---|---|
| `CS(=O)(=O)Cc1ccc(CNC(=O)N2CCC(C(N)=O)C2)cc1` (stereo unspecified) | 2.887 | 1.748 | -2.521 | 8.475 |
| `Cc1nc(N2CCCC2)nc2c1CCN(C(=O)c1ccoc1C)CC2` | -0.1238 | -26.98 | - | 15.84 |
| `O=C(O)[C@@H]1CN(C(=O)CSCC2CC2)C[C@H]1c1ccccn1` | 2.664 | -15.51 | -3.069 | 12.86 |
| `COCC(=O)NCc1cc2n(n1)CCCN(Cc1ccccc1SC)C2` | -1.646 | -6.661 | 2.991 | 15.66 |
| `CN(C)CC(NC(=O)c1ccn(C)c(=O)c1)c1ccccc1` (stereo unspecified) | -1.402 | -6.694 | -0.9855 | 23.89 |
| `Cc1cc(C)nc(N2CCC(CNC(=O)c3cnccn3)CC2)n1` | 4.38 | -14.44 | 2.029 | 17.89 |
| `c1ccc(CN2C[C@H]3CCC[C@@]3(COCC3CC3)C2)nc1` | 0.6342 | -23.32 | -0.7752 | -5.263 |
| `CCn1cc(CN2CCC(c3nnc(CN(C)C)n3CC)CC2)cn1` | -6.818 | 14.95 | -4.225 | 2.83 |
| `CCn1nc(C)c2c1cnn2CCNS(=O)(=O)Cc1ccccc1` | 0.5102 | 17.72 | 0.2546 | 23.46 |
| `O=C(c1ccco1)N1CC[C@@H]2CN(C3CCOCC3)CCO[C@@H]2C1` | -0.8663 | - | - | 15.84 |
| `COc1ncccc1CN1CCC2(CC1)CN(c1ccccn1)CCO2` | -1.468 | -34.45 | 2.169 | 28.77 |
| `O=C1CC(c2ccncc2)C2(CCN(C(=O)c3cccs3)CC2)N1` (stereo unspecified) | 2.284 | -18.58 | 13.74 | 26.47 |
| `Clc1ccc(COCC2CCN(Cc3ccccn3)CC2)cc1` | -6.163 | -2.722 | -1.698 | 14.67 |
| `Cc1cc2n(n1)CC(CNC1CCN(C(=O)c3ccco3)CC1)CN2` (stereo unspecified) | -30.47 | -28.31 | -1.319 | 24.59 |
| `O=C(c1ccc[nH]1)N1CCOCC2(C1)CN(c1ccccc1)C(=O)CO2` (stereo unspecified) | -33.66 | -13.76 | 3.457 | -256.9 |
| `Cc1cccc(NC(=O)c2nn(C3CCS(=O)(=O)C3)c3c2CCCC3)n1` (stereo unspecified) | 1.899 | -68.76 | 0.1356 | 20 |
| `COC(=O)c1ccc(N2CCN(C(=O)c3cc(C)no3)C(C)C2)cc1` (stereo unspecified) | 5.612 | 11.51 | -5.372 | 12.73 |
| `CCc1ccc(S(=O)(=O)Nc2c(C)cccc2C(=O)O)s1` | 7.846 | -5.367 | 2.437 | 16.67 |
| `CCn1ncc(Cn2cc(Cl)c(N)n2)c1C` | 8.961 | 9.894 | 13.18 | 23.53 |
| `COc1ccc(C2(NC(=O)c3ccc(=O)n(C)n3)CCCC2)cc1` | -16.93 | -8.066 | -2.346 | 12.36 |
| `CC(CN1CCOCC1)NC(=O)NCc1ccc(Cl)s1` (stereo unspecified) | 0.135 | -23.59 | 3.284 | 20 |
| `CN1CC2(CCCN(Cc3ccc(Oc4ccccc4)cc3)C2)OC1=O` (stereo unspecified) | 0.6734 | -38.74 | 4.129 | 24.47 |
| `Cn1cc(CN2CCC3(CCCN(Cc4ccccn4)C3)CC2)cn1` | -6.237 | -0.4917 | 0.5757 | 1.905 |
| `Cn1cc(CN2CCc3ncnc(C4CCOC4)c3CC2)cn1` (stereo unspecified) | 8.245 | -10.83 | 1.339 | 8.772 |
| `O=C(CCn1ncc2ccccc21)N1CCCC(Cc2cccnc2)C1` (stereo unspecified) | 4.369 | 8.885 | - | 15.94 |
| `Cc1c(-c2cc(C(F)F)nc3sc(C(N)=O)c(N)c23)cnn1C` | -0.2551 | 5.036 | -1.91 | 3.704 |
| `CCC(=O)c1ccc(OCC(=O)NC(C)c2ncnn2CC)cc1` (stereo unspecified) | 0.6211 | -2.21 | -3.184 | 4.167 |
| `c1ccc2c(c1)CCC21CN(CCc2ccncc2)CCO1` (stereo unspecified) | 8.557 | 7.532 | 1.639 | 5.479 |
| `Cc1cc2c(N)nc(=O)n(CC(=O)Nc3ccccc3)c2s1` | -3.027 | 60.98 | 1.555 | 7.609 |
| `Fc1cnccc1CN1CCCC2(CCN(c3ncccn3)CC2)C1` | 9.346 | -25.92 | 0.08496 | 27.63 |
| `CC(C)[C@H]1CN(C(=O)CC2CCC2)C[C@@H]1N(C)C` | -2.469 | -41.8 | 5.638 | -12.59 |
| `Cn1c(=O)c2c(n3ncnc13)NC(=O)CC2c1cccc(Br)c1` (stereo unspecified) | 2.895 | -11.9 | -2.852 | 8.276 |

Repeated from the top, 2 entries:

Compound	A	B	C	D
CS(=O)(=O)Cc1ccc(CNC(=O)N2CCC(C(N)=O)C2)cc1 (stereo unspecified)	2.887	1.748	-2.521	8.475
Cc1nc(N2CCCC2)nc2c1CCN(C(=O)c1ccoc1C)CC2	-0.1238	-26.98	-	15.84